In article PMC11005723, “Development of Complementary Photo‐arginine/lysine to Promote Discovery of Arg/Lys hPTMs Interactomes” (Advanced Science, 2024):
Further values from the same series stand in other lists.

Test system: HEK293T nuclear lysates
Experiment: SILAC‐based pull‐down proteomics H4K5acK8ac/H4K5 (probes 8/5)
Format: binding, human

## probe 8: H4K5acK8ac peptide probe with photo‐arginine R(dz) and K(biotin) (SGRGKGGKGLGKGGK; photo-arginine R(dz) at 3; acetyl-lysine at 5; acetyl-lysine at 8; K(biotin) at 15)
Protein SMCHD1 (A6NHR9), replicate B6
  B6 log2 (H4K5ac8ac/H4K5): 0.1692
Protein SMU1 (Q2TAY7), replicate A6
  A6 log2 (H4K5ac8ac/H4K5): 1.408
Protein SMU1 (Q2TAY7), replicate B6
  B6 log2 (H4K5ac8ac/H4K5): 0.1323
Protein SND1 (Q7KZF4), replicate A6
  A6 log2 (H4K5ac8ac/H4K5): 0.02377
Protein SND1 (Q7KZF4), replicate B6
  B6 log2 (H4K5ac8ac/H4K5): 0.2076
Protein SUPT20H (B4E2D5), replicate A6
  A6 log2 (H4K5ac8ac/H4K5): -0.008701
Protein SUPT20H (B4E2D5), replicate B6
  B6 log2 (H4K5ac8ac/H4K5): 0.09447
Protein TARS (P26639), replicate A6
  A6 log2 (H4K5ac8ac/H4K5): 0.2216
Protein TARS (P26639), replicate B6
  B6 log2 (H4K5ac8ac/H4K5): 0.1022
Protein TBCC (Q15814), replicate A6
  A6 log2 (H4K5ac8ac/H4K5): 0.6727
Protein TBCC (Q15814), replicate B6
  B6 log2 (H4K5ac8ac/H4K5): 0.2088
Protein THOC3 (Q96J01), replicate A6
  A6 log2 (H4K5ac8ac/H4K5): 0.1071
Protein THOC3 (Q96J01), replicate B6
  B6 log2 (H4K5ac8ac/H4K5): 0.1618
Protein TPI1 (P60174), replicate A6
  A6 log2 (H4K5ac8ac/H4K5): 0.03474
Protein TPI1 (P60174), replicate B6
  B6 log2 (H4K5ac8ac/H4K5): 0.1724
Protein TPX2 (Q9ULW0), replicate A6
  A6 log2 (H4K5ac8ac/H4K5): 0.3363
Protein TPX2 (Q9ULW0), replicate B6
  B6 log2 (H4K5ac8ac/H4K5): 0.08976
Protein TUBB6 (Q9BUF5), replicate A6
  A6 log2 (H4K5ac8ac/H4K5): 0.1994
Protein TUBB6 (Q9BUF5), replicate B6
  B6 log2 (H4K5ac8ac/H4K5): 0.1733
Protein USP48 (Q86UV5), replicate A6
  A6 log2 (H4K5ac8ac/H4K5): 0.0658
Protein USP48 (Q86UV5), replicate B6
  B6 log2 (H4K5ac8ac/H4K5): 0.1885
Protein VDAC2 (A0A0A0MR02), replicate A6
  A6 log2 (H4K5ac8ac/H4K5): 0.4577
Protein VDAC2 (A0A0A0MR02), replicate B6
  B6 log2 (H4K5ac8ac/H4K5): 0.1677
Protein VRK1 (Q99986), replicate A6
  A6 log2 (H4K5ac8ac/H4K5): 0.04481
Protein VRK1 (Q99986), replicate B6
  B6 log2 (H4K5ac8ac/H4K5): 0.1662
Protein WDHD1 (O75717), replicate A6
  A6 log2 (H4K5ac8ac/H4K5): -0.09064
Protein WDHD1 (O75717), replicate B6
  B6 log2 (H4K5ac8ac/H4K5): 0.1039
Protein WDR82 (Q6UXN9), replicate A6
  A6 log2 (H4K5ac8ac/H4K5): 0.134
Protein WDR82 (Q6UXN9), replicate B6
  B6 log2 (H4K5ac8ac/H4K5): 0.109
Protein YWHAE (P62258), replicate A6
  A6 log2 (H4K5ac8ac/H4K5): 0.3463
Protein YWHAE (P62258), replicate B6
  B6 log2 (H4K5ac8ac/H4K5): 0.1476
Protein YY1 (H0YJU4), replicate A6
  A6 log2 (H4K5ac8ac/H4K5): 0.1095
Protein YY1 (H0YJU4), replicate B6
  B6 log2 (H4K5ac8ac/H4K5): 0.1453
Protein ZC3HC1 (C9J0I9), replicate A6
  A6 log2 (H4K5ac8ac/H4K5): 0.06542
Protein ZC3HC1 (C9J0I9), replicate B6
  B6 log2 (H4K5ac8ac/H4K5): 0.1123
Protein ZFP64 (Q9NTW7), replicate A6
  A6 log2 (H4K5ac8ac/H4K5): 0.1142
Protein ZFP64 (Q9NTW7), replicate B6
  B6 log2 (H4K5ac8ac/H4K5): 0.1892
Protein ZFR (Q96KR1), replicate A6
  A6 log2 (H4K5ac8ac/H4K5): 0.2728
Protein ZFR (Q96KR1), replicate B6
  B6 log2 (H4K5ac8ac/H4K5): 0.106
Protein ZMYM2 (Q9UBW7), replicate A6
  A6 log2 (H4K5ac8ac/H4K5): 0.1483
Protein ZMYM2 (Q9UBW7), replicate B6
  B6 log2 (H4K5ac8ac/H4K5): 0.09036
Protein ZNF24 (P17028), replicate A6
  A6 log2 (H4K5ac8ac/H4K5): 0.7178
Protein ZNF24 (P17028), replicate B6
  B6 log2 (H4K5ac8ac/H4K5): 0.2116
Protein ZNF207 (O43670), replicate A6
  A6 log2 (H4K5ac8ac/H4K5): 0.4331
Protein ZNF207 (O43670), replicate B6
  B6 log2 (H4K5ac8ac/H4K5): 0.2028
Protein ZNF217 (O75362), replicate A6
  A6 log2 (H4K5ac8ac/H4K5): -0.8752
Protein ZNF217 (O75362), replicate B6
  B6 log2 (H4K5ac8ac/H4K5): 0.08255
pulled-down protein ABCE1 (D6R9I9), run A6
  A6 log2 (H4K5ac8ac/H4K5): 0.4743
pulled-down protein ABCE1 (D6R9I9), run B6
  B6 log2 (H4K5ac8ac/H4K5): 0.5676
pulled-down protein ACLY (P53396), run A6
  A6 log2 (H4K5ac8ac/H4K5): 0.6948
pulled-down protein ACLY (P53396), run B6
  B6 log2 (H4K5ac8ac/H4K5): 1.132
pulled-down protein AIP (O00170), run A6
  A6 log2 (H4K5ac8ac/H4K5): 0.4076
pulled-down protein AIP (O00170), run B6
  B6 log2 (H4K5ac8ac/H4K5): 0.6403
pulled-down protein AMOT (Q4VCS5), run A6
  A6 log2 (H4K5ac8ac/H4K5): 0.2551
pulled-down protein AMOT (Q4VCS5), run B6
  B6 log2 (H4K5ac8ac/H4K5): 1.0062
pulled-down protein ANXA2 (P07355), run A6
  A6 log2 (H4K5ac8ac/H4K5): 1.076
pulled-down protein ANXA2 (P07355), run B6
  B6 log2 (H4K5ac8ac/H4K5): 1.091
pulled-down protein BRAP (J3KNN7), run A6
  A6 log2 (H4K5ac8ac/H4K5): 0.1925
pulled-down protein BRAP (J3KNN7), run B6
  B6 log2 (H4K5ac8ac/H4K5): 0.847
pulled-down protein BRD9 (Q9H8M2), run A6
  A6 log2 (H4K5ac8ac/H4K5): 1.116
pulled-down protein BRD9 (Q9H8M2), run B6
  B6 log2 (H4K5ac8ac/H4K5): 1.731
pulled-down protein CALD1 (C9J813), run A6
  A6 log2 (H4K5ac8ac/H4K5): 1.3
pulled-down protein CALD1 (C9J813), run B6
  B6 log2 (H4K5ac8ac/H4K5): 1.108
pulled-down protein CCDC50 (Q8IVM0), run A6
  A6 log2 (H4K5ac8ac/H4K5): 0.7222
pulled-down protein CCDC50 (Q8IVM0), run B6
  B6 log2 (H4K5ac8ac/H4K5): 0.6029
pulled-down protein CDK1 (A0A024QZP7), run A6
  A6 log2 (H4K5ac8ac/H4K5): -0.67
pulled-down protein CDK1 (A0A024QZP7), run B6
  B6 log2 (H4K5ac8ac/H4K5): 1.075
pulled-down protein CDK5 (Q00535), run A6
  A6 log2 (H4K5ac8ac/H4K5): 0.3478
pulled-down protein CDK5 (Q00535), run B6
  B6 log2 (H4K5ac8ac/H4K5): 0.6099
pulled-down protein CGGBP1 (C9JUJ0), run A6
  A6 log2 (H4K5ac8ac/H4K5): 0.567
pulled-down protein CGGBP1 (C9JUJ0), run B6
  B6 log2 (H4K5ac8ac/H4K5): 1.126
pulled-down protein CISD2 (Q8N5K1), run A6
  A6 log2 (H4K5ac8ac/H4K5): 0.8566
pulled-down protein CISD2 (Q8N5K1), run B6
  B6 log2 (H4K5ac8ac/H4K5): 0.8209
pulled-down protein CNBP (P62633), run A6
  A6 log2 (H4K5ac8ac/H4K5): 1.001
pulled-down protein CNBP (P62633), run B6
  B6 log2 (H4K5ac8ac/H4K5): 0.8789
pulled-down protein CRKL (P46109), run A6
  A6 log2 (H4K5ac8ac/H4K5): 0.6055
pulled-down protein CRKL (P46109), run B6
  B6 log2 (H4K5ac8ac/H4K5): 0.719
pulled-down protein CTH (P32929), run A6
  A6 log2 (H4K5ac8ac/H4K5): 0.5705
pulled-down protein CTH (P32929), run B6
  B6 log2 (H4K5ac8ac/H4K5): 1.0487
pulled-down protein CYFIP1 (Q7L576), run A6
  A6 log2 (H4K5ac8ac/H4K5): 0.517
pulled-down protein CYFIP1 (Q7L576), run B6
  B6 log2 (H4K5ac8ac/H4K5): 0.6679
pulled-down protein DDX19A (I3L0H8), run A6
  A6 log2 (H4K5ac8ac/H4K5): 0.6876
pulled-down protein DDX19A (I3L0H8), run B6
  B6 log2 (H4K5ac8ac/H4K5): 0.6131
pulled-down protein DNAJC2 (Q99543), run A6
  A6 log2 (H4K5ac8ac/H4K5): 0.5011
pulled-down protein DNAJC2 (Q99543), run B6
  B6 log2 (H4K5ac8ac/H4K5): 0.7739
pulled-down protein DNAJC7 (Q99615), run A6
  A6 log2 (H4K5ac8ac/H4K5): 0.7558
pulled-down protein DNAJC7 (Q99615), run B6
  B6 log2 (H4K5ac8ac/H4K5): 0.7392
pulled-down protein ERCC6L (B5MDQ0), run A6
  A6 log2 (H4K5ac8ac/H4K5): 0.455
pulled-down protein ERCC6L (B5MDQ0), run B6
  B6 log2 (H4K5ac8ac/H4K5): 0.6602
pulled-down protein EZR (E7EQR4), run A6
  A6 log2 (H4K5ac8ac/H4K5): 0.5244
